# Assay results

From PubChem BioAssay record AID504749 (NCATS, 2011).

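A panel of P. falciparum strains inside erythrocytes is exposed to compounds for three days, then a DNA-binding dye reports the amount of parasite DNA. Each compound was titrated across a series from about 0.000037 to 29 µM. The number is the fitted AC50, the concentration giving a half-maximal change in signal; a lower value means higher potency, whether the curve shows a decrease or an increase. Calls follow the curve class and fit quality: every row here is inconclusive, covering signal-raising curves and weak, poorly fitted, partial or highest-dose-only inhibition curves.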

Values are in µM. Every entry below has the call inconclusive. Only part of the assay is shown, chiefly results filed as inconclusive. Potencies fitted to partial, single-point or poorly fitting curves are rough. Some entries filed as inconclusive have a full curve.

| Compound | setting | Potency (µM) | curve as filed |
|---|---|---|---|
| `Nc1cc(-c2ccncc2)c[nH]c1=O` | DIV14 | 12 | inhibitor, partial curve, poor fit |
| `Nc1cc(-c2ccncc2)c[nH]c1=O` | PC26 | 0.8492 | inhibitor, partial curve, poor fit |
| `COc1ccc2c(c1OC)C(=O)OC2C1c2cc3c(cc2CCN1C)OCO3` (centres unmarked) | CP238 | 3.162 | inhibitor, single point |
| `NC(N)=NC(N)=NCCc1ccccc1` | CP286 | 17.78 | inhibitor, single point |
| `NC(N)=NC(N)=NCCc1ccccc1` | parasite line A | 11.22 | inhibitor, single point |
| `NC(N)=NC(N)=NCCc1ccccc1` | 7G8 | 7.943 | inhibitor, partial curve, poor fit |
| `NC(N)=NC(N)=NCCc1ccccc1` | TAB113 | 1.585 | inhibitor, single point |
| `NC(N)=NC(N)=NCCc1ccccc1` | CP262 | 2.393 | inhibitor, partial curve, poor fit |
| `NC(N)=NC(N)=NCCc1ccccc1` | ICS | 10 | inhibitor, partial curve |
| `NC(N)=NC(N)=NCCc1ccccc1` | CP191 | 11.22 | inhibitor, single point |
| `O=C(OCc1ccccc1)c1ccccc1` | CP237 | 0.1778 | inhibitor, partial curve |
| `O=C(OCc1ccccc1)c1ccccc1` | DIV17 | 19.01 | inhibitor, single point |
| `CS(=O)(=O)CCNCc1ccc(-c2ccc3ncnc(Nc4ccc(OCc5cccc(F)c5)c(Cl)c4)c3c2)o1` | CP297 | 0.12 | inhibitor, full curve |
| `CS(=O)(=O)CCNCc1ccc(-c2ccc3ncnc(Nc4ccc(OCc5cccc(F)c5)c(Cl)c4)c3c2)o1` | CP268 | 4.256 | inhibitor, single point |
| `CCN1CC(CCN2CCOCC2)C(c2ccccc2)(c2ccccc2)C1=O` (centres unmarked) | N140 | 7.943 | inhibitor, single point |
| `CCN1CC(CCN2CCOCC2)C(c2ccccc2)(c2ccccc2)C1=O` (centres unmarked) | P93_24 | 11.22 | inhibitor, single point |
| `COc1cc2c(cc1OC)C(C(C(=O)N(CCc1ccc(OC)c(OC)c1OC)CCc1ccc(OC)c(OC)c1OC)c1ccccc1)=NCC2` (centres unmarked) | CP266 | 0.8492 | inhibitor, partial curve, poor fit |
| `COc1cc2c(cc1OC)C(C(C(=O)N(CCc1ccc(OC)c(OC)c1OC)CCc1ccc(OC)c(OC)c1OC)c1ccccc1)=NCC2` (centres unmarked) | N140 | 0.3162 | inhibitor, partial curve |
| `Oc1cc(O)c2c(c1)OC(c1ccc(O)c(O)c1)C(O)C2` (centres unmarked) | GB4 | 16.94 | inhibitor, partial curve, poor fit |
| `Oc1cc(O)c2c(c1)OC(c1ccc(O)c(O)c1)C(O)C2` (centres unmarked) | ECU | 0.631 | inhibitor, partial curve, poor fit |
| `Oc1cc(O)c2c(c1)OC(c1ccc(O)c(O)c1)C(O)C2` (centres unmarked) | CP335 | 19.01 | inhibitor, partial curve, poor fit |
| `Cc1cccc(Nc2ncccc2C(=O)O)c1C` | TAB109 | 3.981 | inhibitor, single point |
| `Cc1cccc(Nc2ncccc2C(=O)O)c1C` | TAB113 | 3.981 | inhibitor, single point |
| `Cc1cccc(Nc2ncccc2C(=O)O)c1C` | CP260 | 12.59 | inhibitor, single point |

Some entries from above, unchanged:

Compound	setting	Potency (µM)	curve as filed
Oc1cc(O)c2c(c1)OC(c1ccc(O)c(O)c1)C(O)C2 (centres unmarked)	CP335	19.01	inhibitor, partial curve, poor fit
Cc1cccc(Nc2ncccc2C(=O)O)c1C	TAB109	3.981	inhibitor, single point